Results deposited as PubChem BioAssay AID1224826 (NIAID, 2016)

- Test: 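Knock-downs that raise or lower Tnf reporter signal after endotoxin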 (primary screen)
- Cells: RAW264.7 G9 macrophages from mouse bearing reporters for p65 (GFP) and the Tnf promoter (mCherry)
- Knock-down reagent: siRNA pool against mouse genes, 100 nM
- Duration: 16 h of LPS stimulation, after 2 days of siRNA transfection
- Conditions: bacterial lipopolysaccharide (Salmonella minnesota R595), 10 ng/ml
- Read-out: 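Nuclear mCherry signal of the Tnf promoter reporter measured by imaging after background removal, scaled to each plate median and turned into robust z-scores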
- Direction: Tnf reporter robust z-score: higher = stronger Tnf promoter reporter signal after LPS
- Active means: 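a well counts as active at a score of -1.3 or below (Tlr4 knock-down control median) or above 3 (raised signal); controls and wells holding fewer than 50 cells are excluded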
- Meaning of the calls: active = Tnf reporter clearly lowered or raised; inactive = no clear change in Tnf reporter
Here is one part, drawn at random, of about 17,000 deposited reagents. About 1,110 of them (6.6%) were called active. 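Active means lowered or raised reporter signal; replicate intensities are raw and not normalised per plate.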 Not all columns of the deposit are shown. Reagent sequences are not shown.

{"Gene": "Galp (GeneID 232836)", "fewer than 50 cells in well": "fewer than 50 cells per well; well left out of calls", "activity call": "inactive"}
{"Gene": "Kat7 (GeneID 217127)", "Tnf reporter robust z-score": -2.1, "fewer than 50 cells in well": "enough cells in well", "activity call": "active"}
{"Gene": "Trappc2l (GeneID 59005)", "Tnf reporter robust z-score": 1.35, "fewer than 50 cells in well": "enough cells in well", "activity call": "inactive"}
{"Gene": "Mapkapk5 (GeneID 17165)", "Tnf reporter robust z-score": -0.58, "fewer than 50 cells in well": "enough cells in well", "activity call": "inactive"}
{"Gene": "Dtnb (GeneID 13528)", "Tnf reporter robust z-score": -0.77, "fewer than 50 cells in well": "enough cells in well", "activity call": "inactive"}
{"Gene": "Mthfd2 (GeneID 17768)", "Tnf reporter robust z-score": -0.43, "fewer than 50 cells in well": "enough cells in well", "activity call": "inactive"}
{"Gene": "Map7d1 (GeneID 245877)", "Tnf reporter robust z-score": -0.79, "fewer than 50 cells in well": "enough cells in well", "activity call": "inactive"}
{"Gene": "Neu2 (GeneID 23956)", "Tnf reporter robust z-score": -0.3, "fewer than 50 cells in well": "enough cells in well", "activity call": "inactive"}
{"Gene": "Cyp2d34 (GeneID 223706)", "Tnf reporter robust z-score": 1.62, "fewer than 50 cells in well": "enough cells in well", "activity call": "inactive"}
{"Gene": "Trim41 (GeneID 211007)", "Tnf reporter robust z-score": -0.62, "fewer than 50 cells in well": "enough cells in well", "activity call": "inactive"}
{"Gene": "Peg3 (GeneID 18616)", "Tnf reporter robust z-score": -1.09, "fewer than 50 cells in well": "enough cells in well", "activity call": "inactive"}
{"Gene": "Wac (GeneID 225131)", "Tnf reporter robust z-score": 3.5, "fewer than 50 cells in well": "enough cells in well", "activity call": "active"}
{"Gene": "A930017M01Rik (GeneID 239410)", "Tnf reporter robust z-score": 1.39, "fewer than 50 cells in well": "enough cells in well", "activity call": "inactive"}
{"Gene": "Cdyl (GeneID 12593)", "Tnf reporter robust z-score": 0.82, "fewer than 50 cells in well": "enough cells in well", "activity call": "inactive"}
